Library screening results

A: 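Whole-cell assay for inhibitors of Mycobacterium tuberculosis growth, labelled Cornell in the record; the read-out is not stated. The concentration is filed as 10 mM, unlikely as a test dose, so the dose is not known. Higher means stronger inhibition (inferred from two other growth screens of the library). Size under these conditions: about 53,000 compounds, about 900 of them at 50% or above in at least one test.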
B: 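Assay on Mycobacterium tuberculosis, filed only as a heat shock assay from Cornell; the read-out is not stated. The concentration is filed as 10 mM, unlikely as a test dose, so the dose is not known. Direction is inferred from retests: higher values go with stronger inhibition. Of about 69,000 compounds tested this way, about 930 (1.4%) reached 50% or more in at least one test.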

The filed quantity is “Percent Effect” (%).
The controls that fix the scale are not given in the record; negative values are as filed.
This is an unselected part of the compounds tested.
A dash means the value is not listed here; it may have been measured.

| # | Compound | A | B |
|---|---|---|---|
| 1 | `CCn1cc(NC(=O)C2CCN(CC(=O)NC(C)(C)CC)CC2)cn1` | 8.383 | -3.601 |
| 2 | `Cc1nnc(CN(C)CCCOc2cccc(Cl)c2)o1` | - | 5.678 |
| 3 | `CN(C)CCOCc1ncn2c1CN(c1ncc(F)cn1)CCC2.O=C(O)C(F)(F)F` | -50.94 | -16.63 |
| 4 | `COc1ccc(OC)c(-n2nnnc2SCC2CCCCO2)c1` (centres undefined) | 40.95 | -10.86 |
| 5 | `CC(Nc1ccc(N2C(=O)CCCC2=O)cc1)c1ccc(C#N)cc1` (centres undefined) | - | 3.246 |
| 6 | `O=C(CCc1ccccc1F)N1CCCC(OCc2cccnc2)C1` (centres undefined) | 18.08 | -10.28 |
| 7 | `Cc1ccc(S(=O)(=O)N2CCC(S(=O)(=O)c3nncn3C)CC2)cc1C` | -4.871 | 12.22 |
| 8 | `CCc1c(O)nc2nc(N3CCOCC3)nn2c1C` | -20.46 | 3.37 |
| 9 | `Clc1cccc2c3c([nH]c12)CCN(Cc1cc2n(n1)CCCNC2)C3` | -4.04 | -16.52 |
| 10 | `CCOCC(=O)N1CCC(c2nccn2CC2CC2)CC1` | 17.62 | -1.113 |
| 11 | `CCc1cnc(CN2CCC(O)(c3cc(OC)cc(OC)c3)CC2)o1` | 13.62 | 2.733 |
| 12 | `CC(=O)N1CCN(C(=O)CN2CCCC2Cn2nc(C)cc2C)CC1` (centres undefined) | - | -13.39 |
| 13 | `COCC(=O)N1CCc2nc(C)nc(NC(C)C)c2CC1` | -8.5 | 41 |
| 14 | `CC(Cn1cccn1)NCc1csc(-c2ccccc2)n1` (centres undefined) | 63.3 | 29.32 |
| 15 | `CN(C)CCNC(=O)c1cc(-c2cnc(N(C)C)nc2)cn1CC1CC1` | - | 11.74 |
| 16 | `Cc1cc(NC(=O)N2CCN(C)CC2C)n(CCC#N)n1` (centres undefined) | -42.71 | -29.47 |
| 17 | `O=C(NCCCn1cccn1)C1CCC(=O)N(CC2CCCCC2)C1` (centres undefined) | 1.522 | -29.95 |
| 18 | `CCCC(O)CN1CCC(=O)N(Cc2ccccc2)Cc2ccccc21` (centres undefined) | 24.14 | 5.738 |
| 19 | `COc1ccccc1Nc1nc2c(s1)C(=O)CN(C(=O)CC(C)C)C2` | 3.899 | -2.62 |
| 20 | `CCn1cc(CN2CCC(c3[nH]ncc3S(C)(=O)=O)C2)cn1` (centres undefined) | - | -21.63 |
| 21 | `CC(=O)NC1CCN(c2cc(C3CCNCC3)nc(C)n2)C1` (centres undefined) | 3.999 | -7.027 |
| 22 | `CCCn1cc(CN2CCC(c3[nH]ncc3S(C)(=O)=O)C2)cn1` (centres undefined) | - | -15.48 |
| 23 | `[H][C@]12CCCCN1CCC[C@H]2CCC(=O)NCCc1cc(O)ncn1` | - | 0.4874 |
| 24 | `Fc1cnc(N2CCCC3(CCN(Cc4ccco4)C3)C2)nc1.O=C(O)C(F)(F)F.O=C(O)C(F)(F)F` (centres undefined) | 26.02 | -39.88 |
| 25 | `Cc1cccc(C2(C(=O)NCC3CCN(CC(F)(F)F)C3)CCC2)c1` (centres undefined) | 12.94 | -4.39 |
| 26 | `Cn1cnnc1CN1CCC2(CCC(=O)N(Cc3ccccn3)C2)CC1` | 13.53 | 3.828 |
| 27 | `O=C(O)CC(O)(CC(=O)O)C(=O)O.OC1CCN(Cc2ccnc(-c3cccnc3)n2)CC1` | -85.07 | 5.351 |
| 28 | `Cc1cc(NCCC(=O)NC2CCCC2)nc(-c2ccncc2)n1` | 9.923 | -2.479 |
| 29 | `O=C(O)C(F)(F)F.[H][C@@]12CCN(c3ncc(F)cn3)C[C@]1([H])O[C@@H](C(=O)N1CCN(C)CC1)C2` | 11.01 | 4.008 |
| 30 | `CCC(C)N1Cc2c(C(=O)N3CCOCC3)nn(C)c2C1.O=C(O)C(F)(F)F` (centres undefined) | 0.492 | -5.344 |
| 31 | `[H][C@@]12CS(=O)(=O)C[C@]1([H])N(Cc1ccc(CCC)o1)CCN2c1ncccn1` | -25.98 | 38.15 |
| 32 | `COc1c(C)cnc(CN2CCOC(Cn3cc(C)cn3)C2)c1C` (centres undefined) | - | 23.13 |
| 33 | `CN(Cc1nnc(C2CC2)n1C)C1CCN(Cc2ccncc2)C1` (centres undefined) | -21.05 | -9.38 |
| 34 | `CN(CCOCC(F)(F)F)CC1CCN(CCO)CC1` | 22.2 | -8.196 |
| 35 | `O=C(O)C(F)(F)F.[H][C@]12CCN(S(=O)(=O)C3CC3)CC[C@@]1([H])S(=O)(=O)CCN2CC(C)C` | -7.004 | -0.4031 |
| 36 | `CN(Cc1noc(C2CC2)n1)C1CCN(Cc2ccncc2)C1` (centres undefined) | -28.54 | 51.32 |
| 37 | `O=C(C1CCOCC1)N1C[C@@H](F)[C@@H](OCc2nc3cc(F)ccc3[nH]2)C1` | 2.924 | -34.47 |
| 38 | `CN1CCN(C(=O)c2cc(C#N)cn2C)c2ccccc2C1` | -21.06 | -6.933 |
| 39 | `O=C(O)C(F)(F)F.c1ccc(CN2CCc3ncnc(-c4ccsc4)c3CC2)nc1` | 15.9 | -3.466 |
| 40 | `CCc1ccc(C(N)c2cccc(S(C)(=O)=O)c2)cc1` (centres undefined) | - | -7.159 |
| 41 | `CNc1ncc(C(=O)N2CCOC(C(=O)N3CCCCCC3)C2)cn1` (centres undefined) | -4.246 | 8.49 |
| 42 | `O=C(O)C(F)(F)F.[H][C@@]12CCCO[C@]1([H])[C@H](OCC1CCOCC1)CN2c1ncc(F)cn1` | -20.63 | 41.59 |
| 43 | `COCCNC(=O)NC1(c2ccccc2F)CC1` | -2.559 | -1.671 |
| 44 | `CC1CN(CC(=O)NC(C2CC2)C2CC2)CCN1Cc1nccn1C` (centres undefined) | - | 11.06 |
| 45 | `CC1CCC2(CC1)NC(=O)c1cc(Br)ccc1-n1nnnc12` (centres undefined) | 23.6 | -16.33 |
| 46 | `CC(C)c1nnc2sc(CC3CCS(=O)(=O)CC3)nn12` | - | -9.889 |
| 47 | `COC(=O)C1CCCCN1C(=O)c1ccccc1F` (centres undefined) | - | -14.28 |
| 48 | `O=C([C@H]1CCCO1)N1CCC2(CC1)C(=O)N(CC1CC1)c1ccccc12` | 20.44 | -20.94 |
| 49 | `O=c1c2cnc(N3CCCCC3)nc2ccn1-c1ccccc1` | - | 7.084 |
| 50 | `CNS(=O)(=O)CCCN1CCCC1c1noc(C2CC2)n1` (centres undefined) | 11.64 | 24.43 |
| 51 | `Cc1nc(C2CCCNC2)nc2c1CCCN2Cc1ccccn1.Cl.Cl` (centres undefined) | 10.21 | -4.497 |
| 52 | `CC(C)(NCCCOc1ccc(C#N)cc1)c1nccs1` | -0.2446 | -23.81 |

5 of the entries, repeated:

{"compound": "Cc1cccc(C2(C(=O)NCC3CCN(CC(F)(F)F)C3)CCC2)c1", "stereo": "centres undefined", "A": 12.94, "B": -4.39}
{"compound": "CC(Nc1ccc(N2C(=O)CCCC2=O)cc1)c1ccc(C#N)cc1", "stereo": "centres undefined", "B": 3.246}
{"compound": "CCc1c(O)nc2nc(N3CCOCC3)nn2c1C", "A": -20.46, "B": 3.37}
{"compound": "CC1CCC2(CC1)NC(=O)c1cc(Br)ccc1-n1nnnc12", "stereo": "centres undefined", "A": 23.6, "B": -16.33}
{"compound": "O=C(O)C(F)(F)F.[H][C@]12CCN(S(=O)(=O)C3CC3)CC[C@@]1([H])S(=O)(=O)CCN2CC(C)C", "A": -7.004, "B": -0.4031}

From ChEMBL document CHEMBL3988442, “University of Dundee, Small-Polar-MMV Screening Library” (2021).